In paper PMC5114727, “Biological characterization of chemically diverse compounds targeting the Plasmodium falciparum coenzyme A synthesis pathway” (Parasites & Vectors, 2016):

Columns and labels:
[1] = system: early stage gametocytes (stage I to IIb/III) of P. falciparum line NF54^Pfs16; assay: Gametocyte luciferase assay, early stage; format: cell-based, Plasmodium falciparum; conditions: toxicity of the intermediate alone
Source text: (§1) To investigate a potential role of CoA biosynthesis for host to vector transmission of the malaria parasite, we investigated the activity of our compounds on P. falciparum gametocytes, the sexual stages of P. falciparum, essential for malaria transmission. […] Parasite stage-specificity and gametocytocidal activity of the compounds was therefore investigated, utilizing a luciferase-based approach on early stage (development from stage I to IIb/III [30]) and late stage (IV to V [51]) gametocytes.
(§2) Induction of P. falciparum gametocyte differentiation and gametocyte culturing were performed as previously described. Compound activity against early stage gametocytes (covering the development from stage I to IIb/III) and late stage gametocytes (stage IV to V) of the recombinant P. falciparum line NF54^Pfs16 was assessed in concentration-response assays, in two experimental replicates consisting of two technical repeats each, at a highest concentration of 40 μM, as described earlier.

[2] = system: P. falciparum asexual blood stage; assay: microbe, parasite or virus in culture; conditions: Plasmodium falciparum, read-out: IC50 of pathway intermediate on asexual blood stage P. falciparum
Procedure: An imaging based assay was utilised to assess the chemical rescue on asexual stages of P. falciparum as described previously. All the pathway intermediates were purchased from Sigma. CoA and dP-CoA were dissolved in sterile distilled water to obtain a 20 mM stock solution, which was then aliquoted and stored at -20 °C until use. […] Each pathway intermediate was tested on the parasites at a range of concentrations to assess potential toxicity. […] On early stage P. falciparum gametocytes the same concentrations as for CoA were tested for dP-CoA; against asexual blood stage P. falciparum, late stage gametocytes and Trypanosoma b. brucei five dP-CoA concentrations were tested (2 mM, 1.5 mM, 1 mM, 0.75 mM and 0.5 mM).

[3] = system: late stage gametocytes (stage IV to V) of P. falciparum line NF54^Pfs16; assay: Gametocyte luciferase assay, late stage; format: cell-based, Plasmodium falciparum; conditions: toxicity of the intermediate alone
Source text: as §1, §2

[4] = system: T. b. brucei trypomastigote; assay: T. b. brucei resazurin (Alamar Blue) viability assay; format: cell-based; conditions: Trypanosoma brucei, read-out: IC50 of pathway intermediate on T. b. brucei
Procedure: Compound activity against two members of another clinically important group of parasites, the kinetoplastids T. cruzi and T. b. brucei was determined. The sensitive high content imaging assay used to determine compound activity against T. cruzi assesses the intracellular amastigote life form of the parasite in the 3T3 host cell. […] The T. b. brucei assay employs the REDOX indicator Alamar Blue to assess viability, which was developed into a 384-well assay format.
Compound activity against T. b. brucei was assessed in a resazurin-based viability assay in concentration-response assays, without technical repeats, in two experimental replicates at a highest concentration of 40 μM, as previously described.

CC(C)(CO)[C@@H](O)C(=O)NCCC(=O)NCCSSCCNC(=O)CCNC(=O)[C@H](O)C(C)(C)CO [pantethine, reference compound]
concentration showing no toxic effect, early stage gametocytes [1]: up to 10 mM | IC50 [2]: 5 mM | concentration showing no toxic effect, late stage gametocytes [3]: up to 10 mM | IC50 [4]: 1.2 mM
